The values below come from publication doi:10.1101/779439.

The assay deals with T1, peptide of CD3 zeta chain containing SNID2 (residues 115-135).
T1 sequence (peptide): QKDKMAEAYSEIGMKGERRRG
The assay is described as follows: ITC.

No constants are given. Whether binding was seen depends on the method and setting. Binding calls can cover weak binding; strength is not graded here.

Consider “SIVmac239 Nef full core domain (residues 90-263) I123L/L146F double mutant (domain or fragment)”, for which the binding result was “binds weakly”.
